Experimental data reported in paper PMC12849452.
Results are given in words; binding and its absence hold for the method and conditions named. Binding seen in cells or lysates may run through a third protein. Some results given as binding are weak or reduced against the parent protein; the word gives no strength.

By UniProt entry, the sequences of proteins in these tests, tags left out.
UniProt P15307: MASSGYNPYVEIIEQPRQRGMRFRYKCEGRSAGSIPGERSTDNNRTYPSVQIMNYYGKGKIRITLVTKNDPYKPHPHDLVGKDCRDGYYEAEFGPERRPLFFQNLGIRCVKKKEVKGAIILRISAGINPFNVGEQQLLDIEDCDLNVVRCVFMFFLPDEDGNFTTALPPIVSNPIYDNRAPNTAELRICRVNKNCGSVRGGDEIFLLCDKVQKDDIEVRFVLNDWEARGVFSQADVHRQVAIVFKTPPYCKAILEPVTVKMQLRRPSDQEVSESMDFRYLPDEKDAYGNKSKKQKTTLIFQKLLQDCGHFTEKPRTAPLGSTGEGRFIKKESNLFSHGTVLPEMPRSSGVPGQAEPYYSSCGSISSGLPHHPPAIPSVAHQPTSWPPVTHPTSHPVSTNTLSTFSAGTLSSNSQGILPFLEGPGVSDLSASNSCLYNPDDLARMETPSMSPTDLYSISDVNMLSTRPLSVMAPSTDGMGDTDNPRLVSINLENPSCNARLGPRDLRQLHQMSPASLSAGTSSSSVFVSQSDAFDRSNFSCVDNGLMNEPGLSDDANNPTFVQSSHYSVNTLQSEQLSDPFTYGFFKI
UniProt Q04207: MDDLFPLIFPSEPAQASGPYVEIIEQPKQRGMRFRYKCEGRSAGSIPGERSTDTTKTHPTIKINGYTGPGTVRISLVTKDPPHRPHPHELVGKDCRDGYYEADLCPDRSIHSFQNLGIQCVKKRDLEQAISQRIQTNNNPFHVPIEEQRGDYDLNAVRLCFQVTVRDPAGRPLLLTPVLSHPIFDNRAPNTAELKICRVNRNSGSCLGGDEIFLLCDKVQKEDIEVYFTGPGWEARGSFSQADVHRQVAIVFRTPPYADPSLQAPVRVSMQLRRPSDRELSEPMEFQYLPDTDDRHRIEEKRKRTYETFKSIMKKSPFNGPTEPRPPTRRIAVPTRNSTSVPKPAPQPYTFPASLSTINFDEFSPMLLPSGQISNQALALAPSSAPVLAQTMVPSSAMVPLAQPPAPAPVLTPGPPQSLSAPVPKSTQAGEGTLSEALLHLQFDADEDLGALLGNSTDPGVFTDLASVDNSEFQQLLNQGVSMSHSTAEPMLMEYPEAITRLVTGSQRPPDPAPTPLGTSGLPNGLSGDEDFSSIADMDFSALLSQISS

Target: c-Rel (REL proto-oncogene NF-kB subunit) (UniProt P15307)
Assay: co-IP; lysate of fifty million cells in 1% Triton-X, 150 mM NaCl, 2 mM EDTA, 50 mM Tris-Cl pH 8, 0.5 mM DTT; IP with anti-c-Rel sc-71, anti-p65 sc-372, anti-RelB sc-226 or rabbit IgG on protein A/G agarose at 4 °C; western blot

binding: binds
Substance: RelA (p65) (from UniProt Q04207 1-549)
